Laboratory results as given in US20110064740A1.
Changes are numbered by the printed parent chain. Results are given in words; binding and its absence hold for the method and conditions named. Some results given as binding are weak or reduced against the parent protein; the word gives no strength.

The chains behind the UniProt entries cited, without tags or fusion partners. Residues count along the entry.
UniProt P05067, residues 672-711: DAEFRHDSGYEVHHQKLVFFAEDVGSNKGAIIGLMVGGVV

B1: Humanised 2E7 variant H1L1 (antibody, human IgG1, kappa, V domains shown)
VH: EVQLVESGGGLVQPGGSLRLSCAASGFTFSDNGMAWVRQAPGKGLEWVSFISNLAYSIDYADTVTGRFTISRDNAKNSLYLQMNSLRAEDTAVYYCVSGTWFAYWGQGTLVTVSS
VL: DIVMTQSPLSLPVTPGEPASISCRVSQSLLHSNGYTYLHWYLQKPGQSPQLLIYKVSNRFSGVPDRFSGSGSGTDFTLKISRVEAEDVGVYYCSQTRHVPYTFGGGTKVEIKR
B2: Humanised 2E7 variant H2L1 (antibody, human IgG1, kappa, V domains shown)
VH: B1 VH with A24V
VL: B1 VL
B3: Humanised 2E7 variant H3L1 (antibody, human IgG1, kappa, V domains shown)
VH: B1 VH with V48I
VL: B1 VL

Biological target: human Aβ peptide (length not stated) (human) (UniProt P05067)
Test: ELISA, supernatants of transiently transfected CHOK1 cells

| Binder | binding |
| --- | --- |
| B1 | binds |
| B2 | binds |
| B3 | binds |
